Results published in paper PMC4114565.
No constants are given. Whether binding was seen depends on the method and setting. Binding seen in cells or lysates may run through a third protein. Some entries that bind do so weakly or less than the wild type. For part of these data: Tags and fused reporters may be left off the sequences shown.

T1: UBF1 (mouse (endogenous in C2C12)) (UniProt P25976)
T1 sequence: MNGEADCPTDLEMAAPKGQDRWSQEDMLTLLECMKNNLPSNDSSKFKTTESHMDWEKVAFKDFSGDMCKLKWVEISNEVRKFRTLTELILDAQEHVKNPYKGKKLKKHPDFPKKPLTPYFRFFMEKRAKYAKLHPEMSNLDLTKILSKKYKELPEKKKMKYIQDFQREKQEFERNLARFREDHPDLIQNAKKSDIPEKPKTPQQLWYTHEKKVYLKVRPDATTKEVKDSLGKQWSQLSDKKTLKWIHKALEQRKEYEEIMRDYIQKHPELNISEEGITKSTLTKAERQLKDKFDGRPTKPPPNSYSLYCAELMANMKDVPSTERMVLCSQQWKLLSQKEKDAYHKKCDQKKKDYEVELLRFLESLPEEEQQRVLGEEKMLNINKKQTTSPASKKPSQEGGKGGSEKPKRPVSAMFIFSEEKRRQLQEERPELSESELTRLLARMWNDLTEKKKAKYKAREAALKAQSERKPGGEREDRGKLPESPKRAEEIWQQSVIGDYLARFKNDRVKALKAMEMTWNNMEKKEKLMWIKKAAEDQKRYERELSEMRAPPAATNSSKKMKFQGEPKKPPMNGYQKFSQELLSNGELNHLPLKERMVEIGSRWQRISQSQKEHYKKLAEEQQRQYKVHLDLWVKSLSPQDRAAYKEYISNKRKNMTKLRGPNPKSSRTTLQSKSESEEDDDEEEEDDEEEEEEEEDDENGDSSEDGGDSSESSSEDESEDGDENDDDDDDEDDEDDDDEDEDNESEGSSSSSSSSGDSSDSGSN


Experiments:
[1] = biological target: T1, UBF1 (mouse (endogenous in C2C12)); assay: co-IP; antibodies against endogenous UBF1, C2C12 lysates; NOA1-His6 co-immunoprecipitated; only the binder purified
[2] = biological target: T1, UBF1 (mouse (endogenous in C2C12)); assay: co-IP; antibodies against endogenous UBF1, C2C12 lysates; endogenous proteins detected by blot

| binding [1] | binding [2] | Binder |
| --- | --- | --- |
| binds | – | recombinant mouse NOA1-His6 protein lacking the mitochondrial targeting sequence (aa 1–17) (domain or fragment, UniProt Q9JJG9 18-693) PAPAAACYGPARWLLEGKCEVPIRQRASSLGRRVPPSSTATEDYAEGPDTEERFLFPEYVPERTPEEQVRELQELRELQQLQQEKERERLQQREERLQQKLRAGFRTLPVPEFPDASVPPSGIYCSGCGAELHCQHPGLPGYLPEEKFRDAAQAEGGPARTVCQRCWLLVHHGRALRLQVSRDQYLELVSAALRRPGPALVLYMVNLLDLPDALLPDLPKLVGPKQLIVLGNKVDLLPQDAPGYLKRLRKRLWDDCIRAGLVVAPGHQGPQYPAGDEPLEEIKNQNPSSRSRTVVKDVRLISAKTGYGVEEMISALQRSWRYRGDVYLVGTTNAGKSTLFNTLLESDYCTAKGSEAIDRATISPWPGTTLNLLKFPICNPTPYRMFKRQRRLQEDATKAEEDLSEEEQSQLNQLKKHGYIVGRVGRTFSYSREQDEVPFEFDADSLAFDMGSEPVVSVCKSTKQIELTPEDVKDAHWFYDTPGITKESCILNLLTEKEINTVLPTHSIIPRTFVLKPGMVLFLGGIARIDFLQGNQSAWFTVVASNFLPVHITSLDKADALYEKHAGHELLLVPMGGKERMAQFPPLVAEDITLKGGGKFEAVADIKFSSAGWVAVTPYSEGTLHLRGHTPEGTALTVHPPVLPYIVNVKGQRMKKSVAYKTKKPPSLVHNLKKHR |
| – | no binding | Tfam (protein, UniProt P40630 43-243) SSMGSYPKKPMSSYLRFSTEQLPKFKAKHPDAKLSELVRKIAALWRELPEAEKKVYEADFKAEWKAYKEAVSKYKEQLTPSQLMGMEKEARQRRLKKKALVKRRELILLGKPKRPRSAYNIYVSESFQEAKDDSAQGKLKLVNEAWKNLSPEEKQAYIQLAKDDRIRYDNEMKSWEEQMAEVGRSDLIRRSVKRSGDISEH |
| – | binds | fibrillarin (protein, UniProt P35550 1-327) MKPGFSPRGGGFGGRGGFGDRGGRGGGRGGRGGFGGGRGGFGGGGRGRGGGGGGFRGRGGGGGRGGGFQSGGNRGRGGGRGGKRGNQSGKNVMVEPHRHEGVFICRGKEDALVTKNLVPGESVYGEKRVSISEGDDKIEYRAWNPFRSKLAAAILGGVDQIHIKPGAKVLYLGAASGTTVSHVSDIVGPDGLVYAVEFSHRSGRDLINLAKKRTNIIPVIEDARHPHKYRMLIAMVDVIFADVAQPDQTRIVALNAHTFLRNGGHFVISIKANCIDSTASAEAVFASEVKKMQQENMKPQEQLTLEPYERDHAVVVGVYRPPPKVKN |
